Drawing on PMC9956629, this text covers binding for two substances.

By UniProt entry, the sequences of proteins in these tests, tags left out. Where a name states a change or a piece, a line headed by the entry shows the natural chain unless it says otherwise.
UniProt A0A509AQ61: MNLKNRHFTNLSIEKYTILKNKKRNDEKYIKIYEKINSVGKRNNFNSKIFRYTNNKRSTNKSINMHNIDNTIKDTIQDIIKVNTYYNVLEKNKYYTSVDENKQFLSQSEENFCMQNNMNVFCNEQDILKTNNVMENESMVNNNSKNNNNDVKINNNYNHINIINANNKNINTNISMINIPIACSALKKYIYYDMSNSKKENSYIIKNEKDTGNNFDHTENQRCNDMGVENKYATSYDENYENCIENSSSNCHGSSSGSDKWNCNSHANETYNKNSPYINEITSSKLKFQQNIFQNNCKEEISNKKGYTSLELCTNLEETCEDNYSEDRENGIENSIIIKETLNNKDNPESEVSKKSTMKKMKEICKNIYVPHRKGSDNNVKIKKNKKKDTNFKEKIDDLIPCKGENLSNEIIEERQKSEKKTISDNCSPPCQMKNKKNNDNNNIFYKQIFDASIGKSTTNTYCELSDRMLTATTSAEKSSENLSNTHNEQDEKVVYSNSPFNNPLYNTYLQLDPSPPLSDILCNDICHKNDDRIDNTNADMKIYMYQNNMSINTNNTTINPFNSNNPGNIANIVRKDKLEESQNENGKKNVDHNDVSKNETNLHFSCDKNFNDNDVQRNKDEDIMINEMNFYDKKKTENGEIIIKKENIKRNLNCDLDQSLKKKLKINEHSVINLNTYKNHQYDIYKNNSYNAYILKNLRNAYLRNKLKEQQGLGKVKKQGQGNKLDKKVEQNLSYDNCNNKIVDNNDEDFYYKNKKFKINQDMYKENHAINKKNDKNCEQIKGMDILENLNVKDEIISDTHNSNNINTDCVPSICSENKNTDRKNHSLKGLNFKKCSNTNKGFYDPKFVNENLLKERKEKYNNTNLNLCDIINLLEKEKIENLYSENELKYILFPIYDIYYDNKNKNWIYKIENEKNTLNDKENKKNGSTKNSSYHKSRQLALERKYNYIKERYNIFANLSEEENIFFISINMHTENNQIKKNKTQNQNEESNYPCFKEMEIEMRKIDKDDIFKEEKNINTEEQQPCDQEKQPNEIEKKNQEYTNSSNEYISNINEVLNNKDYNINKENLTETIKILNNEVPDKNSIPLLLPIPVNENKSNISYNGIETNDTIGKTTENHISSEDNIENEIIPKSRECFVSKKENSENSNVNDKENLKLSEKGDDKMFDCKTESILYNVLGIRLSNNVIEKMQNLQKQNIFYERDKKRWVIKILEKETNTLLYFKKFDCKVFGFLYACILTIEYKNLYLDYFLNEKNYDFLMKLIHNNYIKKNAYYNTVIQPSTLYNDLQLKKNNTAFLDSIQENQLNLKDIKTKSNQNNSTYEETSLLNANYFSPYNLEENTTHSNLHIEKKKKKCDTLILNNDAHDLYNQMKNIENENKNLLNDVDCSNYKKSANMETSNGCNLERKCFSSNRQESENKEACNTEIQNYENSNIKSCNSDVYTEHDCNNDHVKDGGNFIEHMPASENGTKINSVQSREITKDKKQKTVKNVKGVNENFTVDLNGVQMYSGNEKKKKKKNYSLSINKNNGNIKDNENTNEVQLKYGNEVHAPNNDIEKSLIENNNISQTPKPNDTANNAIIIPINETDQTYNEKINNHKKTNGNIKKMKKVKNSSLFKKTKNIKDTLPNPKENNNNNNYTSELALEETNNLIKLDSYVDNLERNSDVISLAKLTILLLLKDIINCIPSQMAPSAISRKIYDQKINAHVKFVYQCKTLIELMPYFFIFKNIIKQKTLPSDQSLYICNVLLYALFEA
UniProt A0A509AMA2: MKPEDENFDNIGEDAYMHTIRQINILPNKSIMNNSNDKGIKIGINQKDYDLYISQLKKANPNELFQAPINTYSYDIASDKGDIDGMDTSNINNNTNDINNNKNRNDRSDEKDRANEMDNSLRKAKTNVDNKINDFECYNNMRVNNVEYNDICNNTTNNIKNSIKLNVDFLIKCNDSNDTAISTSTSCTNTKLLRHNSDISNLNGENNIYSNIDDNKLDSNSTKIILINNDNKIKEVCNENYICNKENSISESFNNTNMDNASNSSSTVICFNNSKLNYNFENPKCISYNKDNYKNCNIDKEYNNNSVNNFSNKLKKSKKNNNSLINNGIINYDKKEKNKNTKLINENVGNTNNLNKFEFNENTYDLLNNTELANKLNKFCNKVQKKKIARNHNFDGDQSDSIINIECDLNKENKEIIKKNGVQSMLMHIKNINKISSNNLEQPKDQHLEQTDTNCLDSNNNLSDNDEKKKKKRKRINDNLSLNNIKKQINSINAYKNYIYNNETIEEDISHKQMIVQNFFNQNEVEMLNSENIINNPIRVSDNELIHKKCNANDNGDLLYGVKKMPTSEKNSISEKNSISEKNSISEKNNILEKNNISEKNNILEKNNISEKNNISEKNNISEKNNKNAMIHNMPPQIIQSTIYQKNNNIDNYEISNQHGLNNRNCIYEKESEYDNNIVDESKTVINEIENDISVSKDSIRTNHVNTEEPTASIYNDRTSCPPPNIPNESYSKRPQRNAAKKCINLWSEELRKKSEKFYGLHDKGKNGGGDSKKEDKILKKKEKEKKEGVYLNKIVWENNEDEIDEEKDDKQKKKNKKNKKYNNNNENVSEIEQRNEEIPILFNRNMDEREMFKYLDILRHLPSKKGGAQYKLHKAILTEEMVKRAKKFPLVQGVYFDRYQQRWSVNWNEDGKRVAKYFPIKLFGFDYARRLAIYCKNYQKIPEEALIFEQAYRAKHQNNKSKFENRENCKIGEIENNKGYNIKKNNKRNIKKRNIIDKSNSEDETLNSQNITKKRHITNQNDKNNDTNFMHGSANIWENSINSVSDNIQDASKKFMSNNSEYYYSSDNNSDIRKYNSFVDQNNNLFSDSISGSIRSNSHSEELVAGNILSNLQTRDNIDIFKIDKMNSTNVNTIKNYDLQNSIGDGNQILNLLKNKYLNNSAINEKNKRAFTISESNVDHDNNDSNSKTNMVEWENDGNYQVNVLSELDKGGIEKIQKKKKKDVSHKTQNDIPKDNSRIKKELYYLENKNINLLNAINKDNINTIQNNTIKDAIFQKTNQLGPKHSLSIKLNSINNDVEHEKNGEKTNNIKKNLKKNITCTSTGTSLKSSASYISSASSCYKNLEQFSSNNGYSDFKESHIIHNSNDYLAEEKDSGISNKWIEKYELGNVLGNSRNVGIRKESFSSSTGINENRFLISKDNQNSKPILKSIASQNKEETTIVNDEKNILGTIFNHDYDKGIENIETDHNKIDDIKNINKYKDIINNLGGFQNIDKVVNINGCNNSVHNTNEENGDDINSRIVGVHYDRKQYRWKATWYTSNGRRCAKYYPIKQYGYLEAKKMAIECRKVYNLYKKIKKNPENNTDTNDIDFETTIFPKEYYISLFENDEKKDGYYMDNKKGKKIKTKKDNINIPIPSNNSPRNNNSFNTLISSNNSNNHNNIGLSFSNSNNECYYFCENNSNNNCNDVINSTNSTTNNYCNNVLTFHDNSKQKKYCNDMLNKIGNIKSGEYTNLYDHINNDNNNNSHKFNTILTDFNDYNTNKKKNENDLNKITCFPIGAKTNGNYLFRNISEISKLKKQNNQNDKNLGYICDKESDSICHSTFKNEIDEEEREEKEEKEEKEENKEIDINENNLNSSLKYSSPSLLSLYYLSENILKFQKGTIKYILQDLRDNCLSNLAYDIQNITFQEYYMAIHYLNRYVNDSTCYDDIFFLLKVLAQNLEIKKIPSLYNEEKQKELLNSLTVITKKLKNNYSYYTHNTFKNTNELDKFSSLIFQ

The target of the test is PbAP2-FG2::GFP (GFP-fused PbAP2-FG2) (P. berghei). The test is described as follows: affinity purification with mass spectrometry; RIME: gametocyte-enriched parasites fixed with 1% formalin, lysed in SDS lysis buffer, sonicated; anti-GFP polyclonal antibody (ab290) on Protein A magnetic beads, 12 h at 4°C; low-salt and high-salt washes; on-bead trypsin digestion, LC-MS/MS; WT parasites as negative control; four independent experiments; hits unique or more than fivefold enriched against WT.

These are yes or no findings as the source states them, for the method shown. Binding seen in cells or lysates may run through a third protein. Here binding means that the protein was enriched with, or labelled near, the bait; the list need not be complete.

As to PbAP2R-2 (from UniProt A0A509AQ61), the binding result is “binds”. With “PbAP2-O2 (from UniProt A0A509AMA2 1-1998)” the entry was “binds”.
